# Results: the supplement of paper PMC9578143, “Small-Molecule Ebselen Binds to YTHDF Proteins Interfering with the Recognition of N^6-Methyladenosine-Modified RNAs” (ACS Pharmacology & Translational Science, 2022)
# The other results are listed elsewhere or left out. Plates or batches differ in their baseline, so values are only roughly comparable.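 Hits were defined as a z-score below −3.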
# Biological target: T1, YTHDF1 YTH domain (aa 365-554) (UniProt Q9BYJ9)
# T1 sequence (whole entry): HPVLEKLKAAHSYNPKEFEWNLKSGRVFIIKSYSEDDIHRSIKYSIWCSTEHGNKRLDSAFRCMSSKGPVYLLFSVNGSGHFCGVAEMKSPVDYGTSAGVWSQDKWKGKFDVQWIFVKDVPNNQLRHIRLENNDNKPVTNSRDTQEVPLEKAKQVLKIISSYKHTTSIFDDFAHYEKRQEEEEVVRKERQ
# Experiment: tryptophan fluorescence intensity z-score (mean); higher = higher fluorescence, less quenching (negative = binding / quenching)
# Settings: 10 µM
row,Compound,tryptophan fluorescence intensity z-score
1,CNC(C)(C)Cc1ccccc1 (plate: M 7-8),inactive: 0.0187
2,CNC(Cc1c[nH]c2ccccc12)C(=O)O (stereo not given) (plate: M 19-20),inactive: 0.512
3,O=C(NC(=O)c1ccccc1Cl)Nc1ccc(OC(F)(F)F)cc1 (plate: M 23-24),inactive: 0.248
4,CCCCCCCCCCCCCCCC[n+]1ccccc1 (plate: M 1-2),inactive: 0.413
5,C=CCC1(C(C)CCC)C(=O)NC(=S)NC1=O (stereo not given) (plate: M 13-14),inactive: 0.0654
6,c1ccc(/N=N/c2ccccc2)cc1 (plate: M 21-22),inactive: 0.212
7,COP(=S)(OC)Oc1ccc(Sc2ccc(OP(=S)(OC)OC)cc2)cc1 (plate: M 1-2),inactive: 0.715
8,O=P1(N(CCCl)CCCl)NCCCO1 (stereo not given) (plate: M 1-2),inactive: 0.496
9,c1ccc2c(c1)sc1ccccc12 (plate: M 1-2),inactive: 0.391
10,CN1C(=O)CCS(=O)(=O)C1c1ccc(Cl)cc1 (stereo not given) (plate: M 23-24),inactive: -0.0571
11,COc1cc([C@@H]2c3cc4c(cc3[C@H](OC(C)=O)[C@H]3COC(=O)[C@@H]23)OCO4)cc(OC)c1OC (plate: M 19-20),inactive: 0.634
12,O=C(O)Cc1cnc[nH]1 (plate: M 21-22),inactive: 0.474
13,COC(=O)NC(=S)Nc1ccccc1NC(=S)NC(=O)OC (plate: M 23-24),inactive: 0.463
14,CC(C)=CCC[C@]1(C)C=Cc2c(O)c3c(c(CC=C(C)C)c2O1)O[C@]12C(=C[C@@H]4C[C@H]1C(C)(C)O[C@@]2(C/C=C(/C)C(N)=O)C4=O)C3=O (plate: M 15-16),inactive: 0.243
15,CC1CC(Cl)CCC1C(=O)OC(C)(C)C (stereo not given) (plate: M 23-24),inactive: 0.41
16,Cl[C@H]1[C@H](Cl)[C@@H](Cl)[C@@H](Cl)[C@H](Cl)[C@H]1Cl (plate: M 1-2),inactive: 0.138
17,CNC(=O)Oc1cccc2c1OC(C)(C)C2 (plate: M 11-12),inactive: -0.0492
18,COc1cc([C@@H]2c3cc4c(cc3[C@@H](O)[C@H]3COC(=O)[C@H]23)OCO4)cc(OC)c1O (plate: M 23-24),inactive: 0.535
19,CCCC(C)(COC(N)=O)COC(=O)NC(C)C (stereo not given) (plate: M 1-2),inactive: 0.348
20,C[C@@]12C(=O)OC(=O)[C@]1(C)[C@H]1CC[C@@H]2O1 (plate: M 21-22),inactive: -0.114

row,Compound,tryptophan fluorescence intensity z-score
1,COC(C)(C)CCC[C@H](C)C/C=C/C(C)=C/C(=O)OC(C)C (plate: M 23-24),inactive: 0.36
2,COc1cc(OC)c(OC)cc1C=O (plate: M 15-16),inactive: 0.515
3,C[N+]1(C)CCCC(OC(=O)C(O)(c2ccccc2)c2ccccc2)C1 (stereo not given) (plate: M 3-4),inactive: 0.0766
4,CN1C2CCC1CC(O)C2 (stereo not given) (plate: M 23-24),inactive: 0.589
5,CC(=O)O[C@@H]1C[C@H]2C(C)(C)C(=O)C=C[C@]2(C)[C@H]2CC[C@]3(C)C(=CC(=O)O[C@H]3c3ccoc3)[C@@]21C (plate: M 13-14),inactive: 0.157
6,N[C@@H]1C[C@H]1c1ccccc1.N[C@H]1C[C@@H]1c1ccccc1 (plate: M 5-6),inactive: -0.0224
7,CC1(C)C(=O)C=C[C@@]2(C)C1=C(O)C(=O)[C@]1(C)[C@@H]2CC[C@@]2(C)[C@H](c3ccoc3)C[C@H]3O[C@]321 (plate: M 13-14),inactive: 0.722
8,C[C@H]1CC[C@]2(NC1)O[C@H]1C[C@H]3[C@@H]4CC[C@H]5C[C@@H](O[C@@H]6O[C@H](CO)[C@H](O[C@@H]7O[C@H](CO)[C@@H](O)[C@H](O[C@@H]8OC[C@@H](O)[C@H](O)[C@H]8O)[C@H]7O[C@@H]7O[C@H](CO)[C@@H](O)[C@H](O)[C@H]7O)[C@H](O)[C@H]6O)CC[C@]5(C)[C@H]4CC[C@]3(C)[C@H]1[C@@H]2C (plate: M 23-24),inactive: 0.073
9,Cc1c(O)c(O)cc2c1CC=C1[C@@]2(C)CC[C@@]2(C)[C@@H]3C[C@](C)(C(=O)O)CC[C@]3(C)CC[C@]12C (plate: M 19-20),inactive: 0.0656
10,O=C1CCO1 (plate: M 13-14),inactive: 0.656
11,CCC(=O)O[C@H]1CC[C@H]2[C@@H]3CCC4=CC(=O)CC[C@]4(C)[C@H]3CC[C@]12C (plate: M 1-2),inactive: 0.493
12,C[C@@H]1CC[C@]2(NC1)O[C@H]1C[C@H]3[C@@H]4CC=C5C[C@@H](O)CC[C@]5(C)[C@H]4CC[C@]3(C)[C@H]1[C@@H]2C (plate: M 13-14),inactive: 0.869
13,C[C@]12C=CC(=O)C=C1CC[C@@H]1[C@@H]2CC[C@]2(C)C(=O)CC[C@@H]12 (plate: M 21-22),inactive: 0.36
14,CCN1C[C@]2(OC(=O)c3ccccc3NC(C)=O)CC[C@H](OC)[C@@]34[C@@H]2C[C@@H]([C@@H]13)[C@@]1(O)C[C@H](OC)[C@H]2C[C@@H]4[C@]1(O)[C@H]2OC (plate: M 21-22),inactive: 0.223
15,CC(=O)CC1CCCCN1 (stereo not given) (plate: M 17-18),inactive: 0.266
16,CCN1C[C@]2(COC)[C@H](O)C[C@H](OC)[C@@]34[C@@H]5C[C@@]6(O)[C@H](OC(=O)c7ccccc7)[C@@H]5[C@@](OC(C)=O)([C@@H]([C@H](OC)[C@H]23)[C@@H]14)[C@@H](O)[C@@H]6OC (plate: M 5-6),inactive: 0.28
17,CC[C@@]1(O)C[C@H](O[C@H]2C[C@H](N(C)C)[C@H](O)[C@H](C)O2)c2c(cc3c(c2O)C(=O)c2c(O)ccc(O)c2C3=O)[C@H]1C(=O)OC (plate: M 15-16),inactive: -0.0942
18,O=[N+]([O-])c1cc([As](=O)(O)O)ccc1O (plate: M 5-6),inactive: 0.216
19,"CC(=O)C1CCC2C3CCC4C[C@H](O)CCC4(C)C3C[C@H](O)C12C (stereo partly drawn) [DIHYDROXY(3alpha,12alpha)PREGNAN-20-ONE] (plate: M 15-16)",inactive: 0.7
20,CC(C)CCCC1(C)C=Cc2c(O)c3c(c(CCC(C)C)c2O1)OC12C(CC4CC1C(C)(C)OC2(CCC(C)C(=O)O)C4O)C3=O (stereo not given) (plate: M 15-16),inactive: 0.414

row,Compound,tryptophan fluorescence intensity z-score
1,CCC1(c2ccc(N)cc2)CCC(=O)NC1=O (stereo not given) (plate: M 1-2),inactive: -0.633
2,C[C@@H](N)[C@@H](O)c1ccccc1 (plate: M 21-22),inactive: -0.121
3,NCCc1ccc(O)cc1 (plate: M 15-16),inactive: 0.701
4,CN(C)C(=O)Oc1cc(OC(=O)N(C)C)cc(C(O)CNC(C)(C)C)c1 (stereo not given) (plate: M 23-24),inactive: 0.226
5,CCn1cc(C(=O)O)c(=O)c2cc3c(cc21)OCO3 (plate: M 7-8),inactive: -0.151
6,C[N+]1(C)[C@@H]2C[C@@H](OC(=O)[C@H](CO)c3ccccc3)C[C@H]1[C@@H]1O[C@@H]12 (plate: M 3-4),inactive: 0.079
7,C[C@]12CC[C@H](O)C[C@@H]1CC[C@@H]1[C@@H]2CC[C@]2(C)C(=O)CC[C@@H]12 (plate: M 17-18),inactive: 0.404
8,CO[C@H]1C[C@H](O[C@H]2CC[C@]3(C=O)[C@H]4CC[C@]5(C)[C@@H](C6=CC(=O)OC6)CC[C@]5(O)[C@@H]4CC[C@]3(O)C2)O[C@H](C)[C@H]1O (plate: M 15-16),inactive: 0.544
9,CC1(C)C2C[C@@H](O)[C@]3(C)C(CC[C@@]4(C)[C@H](c5ccoc5)OC(=O)[C@H]5O[C@]543)[C@@]2(C)[C@@H](O)C[C@H]1O (stereo not given in full) (plate: M 13-14),inactive: -0.0564
10,C[C@@H]1O[C@@H](O[C@H]2C[C@@H](O)[C@]3(CO)[C@H]4[C@H](O)C[C@]5(C)[C@@H](C6=CC(=O)OC6)CC[C@]5(O)[C@@H]4CC[C@]3(O)C2)[C@H](O)[C@H](O)[C@H]1O (plate: M 5-6),inactive: 0.188
11,COc1ccc2c3c([nH]c2c1)C(C)=NCC3 (plate: M 17-18),inactive: 0.593
12,COc1ccc(Cc2nccc3cc(OC)c(OC)cc23)cc1OC (plate: M 3-4),inactive: 0.32
13,CC(=O)OCC1=C(C(=O)O)N2C(=O)[C@@H](NC(=O)CCCC(N)C(=O)O)[C@H]2SC1 (stereo not given in full) (plate: M 17-18),inactive: -0.0824
14,CCC1(CC)C(=O)C=CNC1=O (plate: M 23-24),inactive: -0.0597
15,O=C(NC(=O)c1c(F)cccc1F)Nc1cc(Cl)c(OC(F)(F)C(F)C(F)(F)F)cc1Cl (stereo not given) (plate: M 23-24),inactive: 0.446
16,COc1cc2c(cc1OC)[C@@]13CCN4CC5=CCO[C@H]6CC(=O)N2[C@H]1[C@H]6[C@H]5C[C@H]43 (plate: M 5-6),inactive: -0.0263
17,C=C(C)[C@H]1Cc2c(ccc3c2O[C@@H]2COc4cc(OC)c(OC)cc4[C@@H]2C3=O)O1 (plate: M 15-16),inactive: 0.00942
18,COC(=O)C1=CCCN(C)C1 (plate: M 5-6),inactive: 0.0611
19,CC(=O)O[C@H]1C[C@H](O[C@H]2[C@@H](O)C[C@H](O[C@H]3[C@@H](O)C[C@H](O[C@H]4CC[C@@]5(C)[C@H](CC[C@@H]6[C@@H]5C[C@@H](O)[C@]5(C)[C@@H](C7=CC(=O)OC7)CC[C@]65O)C4)O[C@@H]3C)O[C@@H]2C)O[C@H](C)[C@H]1O[C@@H]1O[C@H](CO)[C@@H](O)[C@H](O)[C@H]1O (plate: M 13-14),inactive: 0.316
20,COc1ccc(CCN2CCC(Nc3nc4ccccc4n3Cc3ccc(F)cc3)CC2)cc1 (plate: M 11-12),inactive: -0.26

# 2 records picked at random from those above:
row,Compound,tryptophan fluorescence intensity z-score
2,C[C@@H](N)[C@@H](O)c1ccccc1 (plate: M 21-22),inactive: -0.121
20,COc1ccc(CCN2CCC(Nc3nc4ccccc4n3Cc3ccc(F)cc3)CC2)cc1 (plate: M 11-12),inactive: -0.26
